Drawing on paper PMC11213209, this text covers binding for one molecule.

Results are given in words; binding and its absence hold for the method and conditions named. In cells and extracts the contact can be indirect. Some results given as binding are weak or reduced against the parent protein; the word gives no strength. Sequences can lack the tags named with a protein.

Assay [1] has as its target mitochondrial thioredoxin reductase (TXNRD2), V5-tagged (human) (UniProt Q9NNW7). As to the kind of experiment: co-IP; HT-1080 cells overexpressing TXNRD2-V5 and TXN2-myc, lysed with NEM; untreated, supplemented with CoA (100 μM, 18 hours), or erastin (2.5 μM, 18 hours) combined with CoA (100 μM).
Assay [2] has the same target. The assay can be described thus: condition: only cells treated with erastin (2.5 μM, 18 hours); co-IP; HT-1080 cells overexpressing TXNRD2 and TXN2, treated with erastin alone (2.5 μM, 18 hours), lysed with NEM.

B1: mitochondrial thioredoxin (TXN2), myc-tagged (protein, UniProt Q99757 60-166)
chain: TTFNIQDGPDFQDRVVNSETPVVVDFHAQWCGPCKILGPRLEKMVAKQHGKVVMAKVDIDDHTDLAIEYEVSAVPTVLAMKNGDVVDKFVGIKDEDQLEAFLKKLIG
Take B1: the binding entry was “binds” in assay [1] and “no binding” in assay [2].
